This is an account of results in patent US20210261668A1.

Experiment [1] concerns the target EGFR expressed on HCC827 human lung cancer cells and on NCI-H747 human colon cancer cells (human) (UniProt P00533). The experiment can be described thus: flow cytometry on cells, anti-human IgG secondary.
Experiment [2] deals with EGFR expressed on NCI-H2172 human lung cancer cells (EGFR L858R T790M) (human) (UniProt P00533). The experiment in a line: flow cytometry on cells, anti-human IgG secondary.

No constants are given. Whether binding was seen depends on the method and setting. Some entries that bind do so weakly or less than the wild type.

B1: AdiCLC2 (antibody, V domains shown)
VH: QVQLQESGPGLVKPSETLSLTCTVSGGSVSSGSYYWSWIRQPPGKGLEWIGYIYYSGSTNYNPSLKSRVTISVDTSKNQFSLKLSSVTAADTAVYYCARTNLYSTPFDIWGQGTMVTVSS
VL: DIQLTQSPSSVSASVGDRVTITCRASQDISSWLAWYQQKPGKAPKLLIYAASSLQSGVPSRFSGSGSGTDFTLTISSLQPEDFATYYCQQEHDFPWTFGGGTKVEIK
Turning to B1, the binding result in experiment [1] and in experiment [2] was “binds” throughout.
